From patent US10550108B2, “Poly(ADP-ribose) polymerase 1 inhibitors structurally unrelated to NAD” (Institute for Cancer Research, priority 2014, dated 2020)
At least one structure is not confirmed: it was looked up by name or label, or the drawing left a doubt.

The chains behind the UniProt entries cited, without tags or fusion partners.
UniProt P09874, whole entry: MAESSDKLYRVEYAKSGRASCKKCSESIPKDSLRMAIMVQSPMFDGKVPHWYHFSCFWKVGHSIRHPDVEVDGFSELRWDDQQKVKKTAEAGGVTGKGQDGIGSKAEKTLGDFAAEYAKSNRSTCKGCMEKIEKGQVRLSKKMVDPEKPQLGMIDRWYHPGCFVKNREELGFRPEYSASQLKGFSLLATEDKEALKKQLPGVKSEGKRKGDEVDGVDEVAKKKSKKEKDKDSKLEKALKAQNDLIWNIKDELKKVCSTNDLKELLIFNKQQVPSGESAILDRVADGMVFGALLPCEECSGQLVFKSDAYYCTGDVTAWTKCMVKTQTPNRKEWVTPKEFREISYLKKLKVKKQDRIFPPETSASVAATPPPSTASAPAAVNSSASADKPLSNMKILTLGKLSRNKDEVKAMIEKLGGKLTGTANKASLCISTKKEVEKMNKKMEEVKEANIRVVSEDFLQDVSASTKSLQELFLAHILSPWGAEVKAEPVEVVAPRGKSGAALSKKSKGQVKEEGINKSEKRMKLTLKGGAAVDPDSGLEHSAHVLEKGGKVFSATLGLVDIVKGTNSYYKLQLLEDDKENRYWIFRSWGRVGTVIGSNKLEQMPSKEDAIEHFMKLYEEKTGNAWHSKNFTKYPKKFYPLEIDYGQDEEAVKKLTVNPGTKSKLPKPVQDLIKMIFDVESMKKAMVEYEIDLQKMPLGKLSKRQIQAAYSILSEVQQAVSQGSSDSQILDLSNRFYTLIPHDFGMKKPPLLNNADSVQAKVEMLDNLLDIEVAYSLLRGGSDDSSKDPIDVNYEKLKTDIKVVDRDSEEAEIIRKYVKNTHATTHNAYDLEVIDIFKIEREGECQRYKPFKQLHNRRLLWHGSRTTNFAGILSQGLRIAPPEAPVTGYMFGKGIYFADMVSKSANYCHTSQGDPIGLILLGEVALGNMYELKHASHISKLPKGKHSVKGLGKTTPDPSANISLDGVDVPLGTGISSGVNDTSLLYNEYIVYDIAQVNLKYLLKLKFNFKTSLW

Molecular target: PARP-1 (Homo sapiens, UniProt P09874)
Experiment: PARP-1 activation screening assay, 384-well ELISA plate coated with histone H4
Settings: pilot screen of ICCB Known Bioactives library; pADPr ELISA signal (absorbance at 650 or 450 nm as indicator of PARP-1 activity)

| SMILES | Value |
| --- | --- |
| C[C@@H]1C[C@H]2[C@@H]3CCC4=CC(=O)C=C[C@]4(C)[C@@]3(F)[C@@H](O)C[C@]2(C)[C@@]1(O)C(=O)CO [Dexamethasone] | 2.01 |
| O=c1c2ccccc2[se]n1-c1ccccc1 [Ebselen] | 0.05 |
